PubChem BioAssay AID686938, Drosophila RNAi Screening Center | 2013
Screen: 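Knock-downs reducing store-operated calcium influx in Drosophila cells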 (primary screen). System: Drosophila S2R+ cells. Knock-down reagent: long dsRNA against Drosophila genes, about 0.25 µg dsRNA per well, roughly 10,000 cells. Timing: 5 days of knock-down before the calcium assay. Treatment: thapsigargin (SERCA pump blocker) to empty calcium stores; entry signal taken 4 min after adding it. Measurement: 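Per-well fluo-4 fluorescence in two replicates, unnormalised, measured in resting cells and 4 min after store depletion by the SERCA blocker thapsigargin; ratio of the two present in few wells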. Scale: calcium entry signal: higher = stronger calcium signal after store depletion; entry to resting ratio: higher = more calcium entry relative to resting level; resting calcium signal: higher = higher resting calcium signal. Units: calcium entry signal in fluorescence units; resting calcium signal in fluorescence units. Active means: 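Hit if the duplicate-averaged plate z-score for entry over resting signal is under −3; wells with weak total dye signal (Fmax z < −2) or more than 5 off-targets removed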. Meaning of the calls: active = strongly reduced calcium entry; inactive = no strong reduction.
The screen tested about 23,000 reagents; below is an unselected part of those that have a named target and a result. In the full data, 75 (0.33%) were called active. 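Raw plate signals without normalisation; calls rest on plate z-scores that were not deposited; ratio present for only 364 wells.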 A plus sign joins genes that one reagent is predicted to hit. The record does not give: the dose of the treatment.

Which result is listed for Picot (GeneID 36865) [SID104187300]?
calcium entry signal, replicate 1: 4.26e7; calcium entry signal, replicate 2: 4.40e7; resting calcium signal, replicate 1: 1.83e7; resting calcium signal, replicate 2: 2.08e7; outcome: inactive

With CG34450 (GeneID 5740775) [SID104197614], what was measured?
calcium entry signal, replicate 1: 3.87e7; calcium entry signal, replicate 2: 4.67e7; resting calcium signal, replicate 1: 1.88e7; resting calcium signal, replicate 2: 2.19e7; outcome: inactive

How did the screen score CG32987 (GeneID 318273) [SID104201856]?
calcium entry signal, replicate 1: 3.81e7; calcium entry signal, replicate 2: 7.18e7; resting calcium signal, replicate 1: 1.73e7; resting calcium signal, replicate 2: 2.67e7; outcome: inactive

With CG41020 (retired record) (GeneID 5740564) [SID104200658], what does the deposit list?
calcium entry signal, replicate 1: 3.02e7; calcium entry signal, replicate 2: 4.50e7; resting calcium signal, replicate 1: 1.50e7; resting calcium signal, replicate 2: 2.05e7; outcome: inactive

What did the screen give for eIF1 (GeneID 38398) [SID104188312]?
calcium entry signal, replicate 1: 1.96e7; calcium entry signal, replicate 2: 2.61e7; resting calcium signal, replicate 1: 1.24e7; resting calcium signal, replicate 2: 1.24e7; outcome: inactive

For CR11023 (GeneID 33155) [SID104180094], how do the results read?
calcium entry signal, replicate 1: 3.32e7; calcium entry signal, replicate 2: 3.29e7; resting calcium signal, replicate 1: 1.64e7; resting calcium signal, replicate 2: 1.52e7; outcome: inactive

What is on record for CG8952 (GeneID 32525) [SID104199925]?
calcium entry signal, replicate 1: 3.67e7; calcium entry signal, replicate 2: 4.14e7; resting calcium signal, replicate 1: 1.82e7; resting calcium signal, replicate 2: 1.84e7; outcome: inactive

What is on record for CG7519 (GeneID 40377) [SID104191626]?
calcium entry signal, replicate 1: 2.55e7; calcium entry signal, replicate 2: 3.32e7; resting calcium signal, replicate 1: 1.13e7; resting calcium signal, replicate 2: 1.54e7; outcome: inactive

2 of these entries in another layout:
gene | PubChem SID | calcium entry signal, replicate 1 | calcium entry signal, replicate 2 | entry to resting ratio | resting calcium signal, replicate 1 | resting calcium signal, replicate 2 | outcome
eIF1 (GeneID 38398) | SID104188312 | 1.96e7 | 2.61e7 | – | 1.24e7 | 1.24e7 | inactive
CR11023 (GeneID 33155) | SID104180094 | 3.32e7 | 3.29e7 | – | 1.64e7 | 1.52e7 | inactive

More records follow:
Which result is listed for Dh44-R2 (GeneID 36368) [SID104185933]?
calcium entry signal, replicate 1: 3.19e7; calcium entry signal, replicate 2: 3.48e7; resting calcium signal, replicate 1: 1.64e7; resting calcium signal, replicate 2: 1.67e7; outcome: inactive

For Dh44-R2 (GeneID 36368) [SID104186073], what was measured?
calcium entry signal, replicate 1: 3.69e7; calcium entry signal, replicate 2: 3.58e7; resting calcium signal, replicate 1: 1.83e7; resting calcium signal, replicate 2: 1.69e7; outcome: inactive

For CG10343 (GeneID 35127) [SID104181833], what does the deposit list?
calcium entry signal, replicate 1: 2.08e7; calcium entry signal, replicate 2: 3.37e7; resting calcium signal, replicate 1: 1.06e7; resting calcium signal, replicate 2: 1.56e7; outcome: inactive

With CG16903 (GeneID 31178) [SID104198353], what was measured?
calcium entry signal, replicate 1: 3.21e7; calcium entry signal, replicate 2: 3.62e7; entry to resting ratio: 1.7; resting calcium signal, replicate 1: 1.89e7; resting calcium signal, replicate 2: 1.84e7; outcome: inactive

What is on record for CG31730 (GeneID 318920) [SID104181100]?
calcium entry signal, replicate 1: 4.21e7; calcium entry signal, replicate 2: 5.28e7; resting calcium signal, replicate 1: 2.20e7; resting calcium signal, replicate 2: 2.51e7; outcome: inactive

Which result is listed for Mt2 (GeneID 34632) [SID104183166]?
calcium entry signal, replicate 1: 3.39e7; calcium entry signal, replicate 2: 2.14e7; resting calcium signal, replicate 1: 1.48e7; resting calcium signal, replicate 2: 9.99e6; outcome: inactive

Which result is listed for slam (GeneID 33890) [SID104183032]?
calcium entry signal, replicate 1: 2.88e7; calcium entry signal, replicate 2: 3.88e7; resting calcium signal, replicate 1: 1.49e7; resting calcium signal, replicate 2: 1.80e7; outcome: inactive

For CG15357 (GeneID 50192) [SID104180179], how do the results read?
calcium entry signal, replicate 1: 2.69e7; calcium entry signal, replicate 2: 2.75e7; resting calcium signal, replicate 1: 1.33e7; resting calcium signal, replicate 2: 1.31e7; outcome: inactive

How did the screen score Pcl (GeneID 37069) [SID104187295]?
calcium entry signal, replicate 1: 3.44e7; calcium entry signal, replicate 2: 3.49e7; resting calcium signal, replicate 1: 1.61e7; resting calcium signal, replicate 2: 1.69e7; outcome: inactive

With bb8 (GeneID 42756) [SID104195370], what does the deposit list?
calcium entry signal, replicate 1: 4.16e7; calcium entry signal, replicate 2: 4.48e7; resting calcium signal, replicate 1: 2.09e7; resting calcium signal, replicate 2: 1.92e7; outcome: inactive

For Atg5 (GeneID 31666) [SID104197904], how do the results read?
calcium entry signal, replicate 1: 4.02e7; calcium entry signal, replicate 2: 3.89e7; resting calcium signal, replicate 1: 1.79e7; resting calcium signal, replicate 2: 1.68e7; outcome: inactive

For att-ORFB + DPCoAC [SID104195348], what does the deposit list?
calcium entry signal, replicate 1: 3.29e7; calcium entry signal, replicate 2: 4.15e7; resting calcium signal, replicate 1: 3.76e7; resting calcium signal, replicate 2: 1.63e7; outcome: inactive

For Paf-AHalpha (GeneID 32529) [SID104200059], what was measured?
calcium entry signal, replicate 1: 3.38e7; calcium entry signal, replicate 2: 3.11e7; resting calcium signal, replicate 1: 1.84e7; resting calcium signal, replicate 2: 1.55e7; outcome: inactive
